“Also recorded” adds a separate entry of the source.
What was measured:
[1] = test system: human adipocytes (differentiated SGBS cells); assay: Insulin mediated glucose uptake assay in mature human adipocytes (differentiated SGBS); type: cell-based; conditions: 24 hours pretreatment 10 nM-10 uM, 100 nM insulin stimulation
Protocol: (§1) For adipogenic differentiation SGBS cells were grown to confluence and subjected to a two-step differentiation process. […] Afterwards, cells were exposed to DMEM/F12 supplemented with 0.01 mg/mL of transferrin, […] of insulin, 100 nM cortisol, and 0.2 nM 3,3′,5-Triiodo-L-thyronine for additional 12 days. HMCL-7304 cells were differentiated in presence of SKMC differentiation medium (PromoCell) for 4-5 days before glucose uptake was performed. Differentiated SGBS or HMCL-7304 cells were pretreated for 24 hours with different concentrations (10 nM, 100 nM, 1 uM, 10 uM) of the chemical inhibitors for HMGCR (atorvastatin), FDPS (alendronate), and SQLE (terbinafine). After the preincubation, the cells were starved for 2 hours prior to 30 minutes of 100 nM insulin stimulation at 37 degrees. […] The cells were then washed with PBS, harvested in 300 uL of M-PER lysis buffer (ThermoFisher), and then added to scintillation vials containing 4.75 mL of scintillation fluid (Perk Elmer). Radioactive counts were determined with a scintillation counter (Model ID: Beckman LS6500). Excess samples were subjected to BCA assay for protein quantification and normalization of radioactive counts. All samples were represented as fold change compared to the unstimulated (no insulin) condition.

[2] = test system: SGBS cells; assay: Adipogenic differentiation assay (Oil Red O) in SGBS cells; type: cell-based, human; conditions: inhibitor added at day 0 of differentiation, 10 nM-10 uM
Protocol: For adipogenic differentiation SGBS cells were grown to confluence and subjected to a two-step differentiation process. […] Afterwards, cells were exposed to DMEM/F12 supplemented with 0.01 mg/mL of transferrin, […] of insulin, 100 nM cortisol, and 0.2 nM 3,3′,5-Triiodo-L-thyronine for additional 12 days. HMCL-7304 cells were differentiated in presence of SKMC differentiation medium (PromoCell) for 4-5 days before glucose uptake was performed. For quantification of the effect on adipogenic differentiation, chemical inhibitors for HMGCR (atorvastatin), FDPS (alendronate), and SQLE (terbinafine) were added at day 0 of differentiation at different concentrations (10 nM, 100 nM, 1 uM, 10 uM.). Differentiation quantification was performed with Oil Red 0. Differentiated SGBS cells were fixed with 10% formalin for 10 minutes at room temperature. After washing with 60% isopropanol, samples were incubated in Oil Red 0 (Sigma-Aldrich) for 10 minutes at room temperature. Oil Red 0 was eluted with 100% isopropanol for 10 minutes. The solution was then transferred into a 96-well plate and absorbance measured at 500nm.

[3] = test system: human SKMCs (HMCL-7304); assay: Insulin mediated glucose uptake assay in mature human SKMCs (HMCL-7304); type: cell-based; conditions: human SKMCs (HMCL-7304 myotubes); 24 hours pretreatment 10 nM-10 uM; 100 nM insulin stimulation
Protocol: as §1

SMILES | insulin mediated glucose uptake [1] | differentiation efficiency (adipogenesis, Oil Red O absorbance at 500 nm) [2] | insulin mediated glucose uptake [3]
NCCCC(O)(P(=O)(O)O)P(=O)(O)O [alendronate] | decrease insulin mediated glucose uptake | only HMGCR inhibition demonstrates a detectable decrease | 
CC(C)c1c(C(=O)Nc2ccccc2)c(-c2ccccc2)c(-c2ccc(F)cc2)n1CC[C@@H](O)C[C@@H](O)CC(=O)O [atorvastatin] | decrease insulin mediated glucose uptake | detectable decrease | inhibits; also recorded: affected
